Source: patent US20220251568A1
These are yes or no findings as the source states them, for the method shown. Binding seen in cells or lysates may run through a third protein. Some results given as binding are weak or reduced against the parent protein; the word gives no strength. For some of these results: Where a sequence is shown, tags or fusion partners need not be part of it. Blank lines part the entries; values can stand above or below the binder they belong to.

By UniProt entry, the sequences of proteins in these tests, tags left out. Residues count along the entry.
UniProt Q13464, residues 2-1354: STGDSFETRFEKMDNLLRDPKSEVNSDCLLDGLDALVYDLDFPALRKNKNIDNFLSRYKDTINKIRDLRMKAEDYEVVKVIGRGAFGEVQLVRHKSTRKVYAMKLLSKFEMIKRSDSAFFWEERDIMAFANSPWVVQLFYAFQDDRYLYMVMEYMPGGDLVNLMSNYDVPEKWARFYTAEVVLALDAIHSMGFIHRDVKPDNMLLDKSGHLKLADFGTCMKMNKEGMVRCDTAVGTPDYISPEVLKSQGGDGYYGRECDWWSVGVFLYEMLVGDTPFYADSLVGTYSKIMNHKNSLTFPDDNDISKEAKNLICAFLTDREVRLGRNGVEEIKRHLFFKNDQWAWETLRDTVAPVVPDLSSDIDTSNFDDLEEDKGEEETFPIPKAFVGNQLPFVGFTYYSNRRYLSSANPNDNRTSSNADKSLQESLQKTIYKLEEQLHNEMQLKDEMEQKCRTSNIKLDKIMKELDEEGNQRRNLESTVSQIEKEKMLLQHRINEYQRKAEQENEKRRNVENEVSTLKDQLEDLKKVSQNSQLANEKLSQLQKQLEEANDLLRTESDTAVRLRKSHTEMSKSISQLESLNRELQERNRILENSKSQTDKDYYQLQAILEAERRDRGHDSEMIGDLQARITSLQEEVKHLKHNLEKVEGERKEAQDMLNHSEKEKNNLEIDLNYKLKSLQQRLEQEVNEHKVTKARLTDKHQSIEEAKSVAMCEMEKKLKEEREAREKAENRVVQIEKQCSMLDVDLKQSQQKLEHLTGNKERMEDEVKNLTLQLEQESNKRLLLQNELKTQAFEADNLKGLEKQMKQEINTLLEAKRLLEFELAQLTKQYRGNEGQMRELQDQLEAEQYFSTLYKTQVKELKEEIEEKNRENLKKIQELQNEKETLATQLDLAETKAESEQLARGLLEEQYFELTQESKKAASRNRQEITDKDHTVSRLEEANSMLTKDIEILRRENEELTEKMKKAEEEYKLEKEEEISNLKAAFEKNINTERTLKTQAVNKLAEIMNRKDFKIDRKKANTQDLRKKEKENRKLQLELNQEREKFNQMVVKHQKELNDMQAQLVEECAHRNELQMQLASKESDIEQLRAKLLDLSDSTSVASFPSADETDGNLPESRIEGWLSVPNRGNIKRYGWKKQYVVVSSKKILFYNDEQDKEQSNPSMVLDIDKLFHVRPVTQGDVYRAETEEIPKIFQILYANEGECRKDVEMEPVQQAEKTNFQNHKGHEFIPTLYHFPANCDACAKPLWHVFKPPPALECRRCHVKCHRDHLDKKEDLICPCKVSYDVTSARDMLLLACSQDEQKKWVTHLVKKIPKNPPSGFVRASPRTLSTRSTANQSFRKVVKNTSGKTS

Legend:
[1] = target: T1, p190RhoGAP (UniProt Q9NRY4); assay: co-IP (discussion of the example)
T1 sequence (looked up): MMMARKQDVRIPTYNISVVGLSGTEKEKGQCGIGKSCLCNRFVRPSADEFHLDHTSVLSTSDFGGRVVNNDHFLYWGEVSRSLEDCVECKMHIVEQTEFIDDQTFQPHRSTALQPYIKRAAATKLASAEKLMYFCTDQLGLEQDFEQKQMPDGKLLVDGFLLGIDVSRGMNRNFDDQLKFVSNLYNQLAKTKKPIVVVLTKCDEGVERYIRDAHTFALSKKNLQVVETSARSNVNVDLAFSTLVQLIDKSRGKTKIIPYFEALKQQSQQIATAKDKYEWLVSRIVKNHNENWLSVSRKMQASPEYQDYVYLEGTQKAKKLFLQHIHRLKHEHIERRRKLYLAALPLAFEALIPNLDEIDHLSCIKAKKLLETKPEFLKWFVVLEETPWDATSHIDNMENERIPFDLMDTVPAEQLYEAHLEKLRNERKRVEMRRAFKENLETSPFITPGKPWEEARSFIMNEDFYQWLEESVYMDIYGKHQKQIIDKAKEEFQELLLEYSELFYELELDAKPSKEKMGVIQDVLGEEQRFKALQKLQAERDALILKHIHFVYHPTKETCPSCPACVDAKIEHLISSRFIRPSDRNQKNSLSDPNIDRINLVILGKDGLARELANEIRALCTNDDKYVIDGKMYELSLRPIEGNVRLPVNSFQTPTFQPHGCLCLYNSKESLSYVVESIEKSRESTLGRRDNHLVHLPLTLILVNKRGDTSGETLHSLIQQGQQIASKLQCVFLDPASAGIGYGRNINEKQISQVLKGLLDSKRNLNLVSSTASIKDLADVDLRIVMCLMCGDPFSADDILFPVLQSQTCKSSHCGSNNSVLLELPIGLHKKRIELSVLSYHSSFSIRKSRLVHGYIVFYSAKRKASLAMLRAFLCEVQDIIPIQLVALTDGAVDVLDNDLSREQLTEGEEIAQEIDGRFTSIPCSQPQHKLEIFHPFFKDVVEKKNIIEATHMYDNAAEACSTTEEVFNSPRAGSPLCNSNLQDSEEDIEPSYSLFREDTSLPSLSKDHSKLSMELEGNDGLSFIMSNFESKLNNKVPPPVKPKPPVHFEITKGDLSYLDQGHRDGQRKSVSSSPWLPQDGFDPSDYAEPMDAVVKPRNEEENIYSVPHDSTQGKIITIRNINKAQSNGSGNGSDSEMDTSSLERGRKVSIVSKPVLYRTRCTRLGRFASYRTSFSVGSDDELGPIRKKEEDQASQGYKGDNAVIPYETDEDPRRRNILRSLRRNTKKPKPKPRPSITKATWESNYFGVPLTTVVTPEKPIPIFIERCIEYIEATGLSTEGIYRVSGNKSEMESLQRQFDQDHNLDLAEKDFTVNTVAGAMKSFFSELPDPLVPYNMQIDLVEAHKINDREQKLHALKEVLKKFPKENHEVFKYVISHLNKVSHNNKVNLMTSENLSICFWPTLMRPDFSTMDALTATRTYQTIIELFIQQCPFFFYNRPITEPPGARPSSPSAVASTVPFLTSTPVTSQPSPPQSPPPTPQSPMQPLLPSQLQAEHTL

[2] = target: T2, synectin-binding RhoA exchange factor (Syx) (UniProt O94827); assay: co-IP (discussion of the example)
T2 sequence (looked up): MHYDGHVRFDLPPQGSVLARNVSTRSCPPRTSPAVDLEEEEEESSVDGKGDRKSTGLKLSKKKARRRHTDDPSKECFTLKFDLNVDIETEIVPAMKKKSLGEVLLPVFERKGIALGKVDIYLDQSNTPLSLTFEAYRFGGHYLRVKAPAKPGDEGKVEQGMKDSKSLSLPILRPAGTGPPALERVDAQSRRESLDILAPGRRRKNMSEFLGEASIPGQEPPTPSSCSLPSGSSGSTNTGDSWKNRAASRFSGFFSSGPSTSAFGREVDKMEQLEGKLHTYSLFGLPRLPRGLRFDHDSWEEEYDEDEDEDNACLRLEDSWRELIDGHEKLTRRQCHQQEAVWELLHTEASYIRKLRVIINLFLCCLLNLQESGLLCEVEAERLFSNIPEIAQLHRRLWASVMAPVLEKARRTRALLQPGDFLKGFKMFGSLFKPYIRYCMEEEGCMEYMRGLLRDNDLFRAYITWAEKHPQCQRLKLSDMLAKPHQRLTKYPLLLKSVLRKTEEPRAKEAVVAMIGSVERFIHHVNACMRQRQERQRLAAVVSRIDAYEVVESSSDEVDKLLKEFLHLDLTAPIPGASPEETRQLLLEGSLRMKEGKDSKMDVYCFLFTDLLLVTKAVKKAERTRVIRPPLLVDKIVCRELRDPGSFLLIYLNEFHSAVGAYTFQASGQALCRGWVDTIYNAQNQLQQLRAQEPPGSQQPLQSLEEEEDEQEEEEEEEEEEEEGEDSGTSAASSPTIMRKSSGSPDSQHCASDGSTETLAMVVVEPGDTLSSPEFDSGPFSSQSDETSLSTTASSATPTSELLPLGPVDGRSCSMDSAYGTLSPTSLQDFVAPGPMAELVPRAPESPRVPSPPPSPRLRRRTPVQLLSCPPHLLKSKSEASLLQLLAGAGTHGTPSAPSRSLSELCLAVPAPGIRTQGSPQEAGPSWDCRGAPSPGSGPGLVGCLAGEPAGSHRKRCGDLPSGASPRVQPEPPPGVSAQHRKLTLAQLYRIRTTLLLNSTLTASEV

[3] = target: T1, p190RhoGAP; assay: co-IP with anti-flag antibody, transfected HEK293 cells
[4] = target: T2, synectin-binding RhoA exchange factor (Syx); assay: as above
[5] = target: Rho-associated coiled-coil kinase 1 (ROCK1) (UniProt Q13464); assay: co-IP (discussion of the example)
[6] = target: T1, p190RhoGAP; assay: co-IP (summary of the example)
[7] = target: T2, synectin-binding RhoA exchange factor (Syx); assay: co-IP (summary of the example)
[8] = target: Rho-associated coiled-coil kinase 1 (ROCK1) (UniProt Q13464); assay: co-IP (summary of the example)

B2: RND3, referred to alternately as RhoE (protein)
chain: MKERRASQKLSSKSIMDPNQNVKCKIVVVGDSQCGKTALLHVFAKDCFPENYVPTVFENYTASFEIDTQRIELSLWDTSGSPYYDNVRPLSYPDSDAVLICFDISRPETLDSVLKKWKGEIQEFCPNTKMLLVGCKSDLRTDVSTLVELSNHRQTPVSYDQGANMAKQIGAATYIECSALQSENSVRDIFHVATLACVNKTNKNVKRNKSQRATKRISHMPSRPELSAVATDLRKDKAKSC
binding [5]: binds

B4: RhoEα, short isoform of RhoE (protein)
chain: MDPNQNVKCKIVVVGDSQCGKTALLHVFAKDCFPENYVPTVFENYTASFEIDTQRIELSLWDTSGSPYYDNVRPLSYPDSDAVLICFDISRPETLDSVLKKWKGEIQEFCPNTKMLLVGCKSDLRTDVSTLVELSNHRQTPVSYDQGANMAKQIGAATYIECSALQSENSVRDIFHVATLACVNKTNKNVKRNKSQRATKRISHMPSRPELSAVATDLRKDKAKSC
binding [8]: binds
binding [5]: binds

Further lines, results first:

binding [1]: binds
binding [2]: binds
binding [3]: binds
binding [4]: binds
B1: flag-RhoE (protein, not shown: small tags and cut ends)
chain: B2 chain

binding [6]: binds
binding [7]: binds
binding [1]: binds
binding [2]: binds
binding [3]: binds
binding [4]: binds
B3: flag-RhoEα (protein, not shown: small tags and cut ends)
chain: B4 chain
